# According to PubChem BioAssay AID2417 (National Center for Advancing Translational Sciences (NCATS), 2010):
# The whole screen tested about 140,000 compounds, of which about 4,300 (3.1%) were called active. The shares of active, inactive and inconclusive entries below differ from those in the screen.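 How the source made its calls: active means readout at or below -70, meaning at least 70% loss of cells showing the perinucleolar compartment, a nuclear body marking cancer cells; inconclusive means readout between -30 and a set limit; inactive means the rest.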
# Assay: High Content Assay for Compounds that inhibit the Assembly of the Perinucleolar Compartment;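 further: plate controls were DMSO wells for no effect and camptothecin positive control wells for full effect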
# Conditions: PC3M PTB-GFP, PNC prevalence imaging, 16 h; at 10 µM; active compounds read low
# In short: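 Compounds are pinned in duplicate onto adhered PC3M cells stably expressing GFP-tagged PTB and incubated 16 h at 37 C. Cells are then fixed, nuclei stained with Hoechst, and PNC-positive cells counted.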
row,SMILES,"activity change (PNC), negative = inhibition"
1,Cc1n[nH]c(C)c1S(=O)(=O)N1CCC(C(=O)O)CC1,inconclusive: -47.6%
2,Cc1ccc(-c2sc(C)nc2CC(=O)O)cc1,inconclusive: -44.9%
3,O=C(/C=C/c1ccccc1)NCCC1=CCCCC1,inactive: 58.1%
4,CCCCN1CCc2c([nH]c3c(C)cccc23)C1=O,active: -86.6%
5,Cc1nnc(C)c2c(C)n(C(c3ccccc3)c3ccccc3)c(C)c12,inconclusive: -51.1%
6,COc1ccc(/C(O)=C2\C(=O)C(=O)N(CC3CCCO3)C2c2cc(OC)ccc2OC)cc1 (stereo not given),inactive: 9.07%
7,COC(=O)c1ccccc1NC(=O)/C=C/C(=O)O,active: -83.5%
8,Cc1c(NS(=O)(=O)c2ccc(Br)s2)c(=O)n(-c2ccccc2)n1C,inconclusive: -54.6%
9,O=[N+]([O-])c1ccc(NC(=S)N2CCN(c3ccc(F)cc3)CC2)cc1,inactive: 43.6%
10,COc1ccc(OCCC(=O)NCc2ccccc2)cc1,inconclusive: -50.7%
11,O=C(O)CCSCC(=O)Nc1c(C(=O)C2CC2)oc2ccccc12,inconclusive: -30.8%
12,COc1ccc2ccccc2c1C(=O)/C=C\c1ccoc1,inactive: -10.9%
13,CCOC(=O)C1CCN(c2ncnc3nc[nH]c23)CC1,inconclusive: -60.7%
14,COc1ccc(N(CC(=O)NCc2ccc(C)cc2)S(=O)(=O)c2c(C)nn(C)c2C)cc1,inconclusive: -68.8%
15,CC(C)CNS(=O)(=O)c1ccc(OCC(=O)NCc2ccco2)cc1,inconclusive: -42.5%
16,COC(=O)c1c(NC(=S)Nc2cc(OC)c(Cl)cc2OC)sc2c1CCCCC2,inconclusive: -37.8%
17,O=C(Nc1cccnc1)/C(N=Nc1cccnc1)=C(\O)c1ccccc1,inactive: -29.1%
18,CC(Sc1ccc(Br)cc1)C(N)=O (stereo not given),inconclusive: -49.8%
19,CON(C)c1nc(Oc2ccc(=O)[nH]n2)nc(N(C)C)n1,inconclusive: -37.5%
20,O=S(=O)(c1ccccc1)N1CCN(c2nc3ccccc3s2)CC1,inconclusive: -36.8%
21,COc1ccc(CN2CCCCC2C)cc1C (stereo not given),inconclusive: -55.1%
22,O=C1CCCN1CN(C(=O)c1ccc2c(c1)OCO2)c1cccc(Cl)c1,inconclusive: -43.7%
23,CCOC(=O)c1[nH]c(CSc2nnc(-c3ccncc3)n2CCOC)c(C(=O)OCC)c1C,inconclusive: -57.4%

row,SMILES,"activity change (PNC), negative = inhibition"
1,COc1cc(/C=C2\SC(=S)N(Nc3ncc(C(F)(F)F)cc3Cl)C2=O)ccc1O,inactive: 27.8%
2,Cc1nn(CCCC(=O)NCc2ccccc2)c(C)c1[N+](=O)[O-],inconclusive: -74.8%
3,Cc1[nH]c2ccc(OCc3ccccc3)cc2c1CCN1C(=O)OC(C)(C)C1(C)O (stereo not given),inconclusive: -34%
4,Cc1ccc(NC(=O)COC(=O)/C=C/c2cccs2)c(C)c1,inactive: -18.3%
5,Cc1ccc(NC(=O)COc2ccc(CCO)cc2-n2nc3ccccc3n2)cc1C,inactive: -25%
6,CN(C)CCOC(=O)C12CC3CC(CC(C3)C1)C2,inconclusive: -44.1%
7,Cc1cc(NC(=O)c2nn3cccnc3c2Cl)no1,inconclusive: -54.9%
8,COc1cc(CNc2ccccc2Oc2cc(=O)n(C)c(=O)n2C)cc(OC)c1OC,inconclusive: -34%
9,CC(=O)Oc1ccc(/C=N/NC(=O)C2CCCN2S(=O)(=O)c2ccc(Cl)cc2)cc1 (stereo not given),inconclusive: -33.7%
10,COc1ccc(CCC(=O)N2CCN(C3CCCCC3)CC2)cc1,inconclusive: -49.1%
11,CCn1c(CCC(=O)Nc2nc3c(s2)CCCC3)nc2cc(S(=O)(=O)N(C)C)ccc21,inactive: -4.41%
12,Cc1cc(NC(=O)CSc2nnc(-c3ccc(Cl)s3)o2)no1,inconclusive: -55.6%
13,COc1ccc(C(=S)N2CCNCC2)cc1,inconclusive: -71.7%
14,CCOC(=O)C1=C(c2ccccc2)OC(N)=C(C#N)C1c1ccc(Cl)s1 (stereo not given),inactive: -20.7%
15,COc1ccc(C2NCCc3cc(OC)c(OC)cc32)cc1OC (stereo not given),inconclusive: -31.3%
16,Nc1nc(Cn2nnc(-c3ccccc3F)n2)nc(N2CCOCC2)n1,inconclusive: -37.9%
17,Cn1cc(S(=O)(=O)NCc2cccs2)c(=O)n(C)c1=O,inconclusive: -55.8%
18,Cc1ccc(CC(NC(=O)c2ccccc2)C(=O)NCC(=O)O)cc1 (stereo not given),inactive: 4.27%
19,Nn1c(SCc2cccc(Oc3ccccc3)c2)nnc1C(F)(F)F,inconclusive: -74.3%
20,CCOC(=O)CN(C(=O)CNC(=O)c1cccs1)C(C(=O)NC1CCCCC1)c1cccnc1 (stereo not given),inconclusive: -43.1%
21,COc1ccc(N2CCCn3c2nc2c3c(=O)n(CCCc3ccccc3)c(=O)n2C)cc1,inactive: 12.6%
22,COCCOC(=O)C1=C(C)NC(SCC(=O)NC(C)(C)C)=C(C#N)C1c1ccco1 (stereo not given),inconclusive: -35.6%

# Ordered by molar mass (ascending): part of the list above.
row,SMILES,"activity change (PNC), negative = inhibition"
5,Cc1nnc(C)c2c(C)n(C(c3ccccc3)c3ccccc3)c(C)c12,inconclusive: -51.1%
15,CC(C)CNS(=O)(=O)c1ccc(OCC(=O)NCc2ccco2)cc1,inconclusive: -42.5%
5,Cc1ccc(NC(=O)COc2ccc(CCO)cc2-n2nc3ccccc3n2)cc1C,inactive: -25%
